Values from PubChem BioAssay AID1224829 (NIAID, 2016)
Shown is a random part of about 3,800 deposited reagents. 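Calls cover raised and lowered translocation; gene median uses one vendor's three siRNAs; qiagen siRNAs acted more weakly than ambion siRNAs.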 A number with no mark means an inactive call. The numbers tell different reagents against one gene apart. Not all columns of the deposit are shown.

Purpose: 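Secondary check of hits that alter LPS-induced p65 translocation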 (follow-up of hits)
Cell system: mouse RAW264.7 G9 macrophage reporter cells
Knock-down reagent: single siRNA against mouse genes, 100 nM
Duration: 2 days of siRNA knock-down, then 40 min of LPS before fixing
Conditions: LPS (Salmonella minnesota R595) at 10 ng/ml
Detection: 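High-content images after 40 min LPS exposure; GFP-p65 nucleus to surrounding ring signal ratio, normalised to plate median and non-targeting control wells, expressed as z-score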
Reading the numbers: p65 translocation z-score: higher = more nuclear NF-kappaB p65 after LPS
Call rule: 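An siRNA is called active when the mean z-score of its two replicates is above 2 or below -2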
Calls: active = changed p65 translocation (either direction); inactive = no clear change

Ncor2 (nuclear receptor co-repressor 2) #1, siRNA vendor or control pool ambion single siRNA → p65 translocation z-score, replicate mean: -3.17 (active)
Ncor2 (nuclear receptor co-repressor 2) #2, siRNA vendor or control pool ambion single siRNA → p65 translocation z-score, replicate mean: -1.24
Ncor2 (nuclear receptor co-repressor 2) #3, siRNA vendor or control pool ambion single siRNA → p65 translocation z-score, replicate mean: -5.14 (active)
Ncor2 (nuclear receptor co-repressor 2) #4, siRNA vendor or control pool qiagen single siRNA → p65 translocation z-score, replicate mean: -1.86
Ncor2 (nuclear receptor co-repressor 2) #5, siRNA vendor or control pool qiagen single siRNA → p65 translocation z-score, replicate mean: -2.49 (active)
Ncor2 (nuclear receptor co-repressor 2) #6, siRNA vendor or control pool qiagen single siRNA → p65 translocation z-score, replicate mean: -1.77
Elf3 (E74-like factor 3) #1, siRNA vendor or control pool ambion single siRNA → p65 translocation z-score, replicate mean: -1.5
Elf3 (E74-like factor 3) #2, siRNA vendor or control pool ambion single siRNA → p65 translocation z-score, replicate mean: -5.94 (active)
Elf3 (E74-like factor 3) #3, siRNA vendor or control pool ambion single siRNA → p65 translocation z-score, replicate mean: 0.0597
Elf3 (E74-like factor 3) #4, siRNA vendor or control pool qiagen single siRNA → p65 translocation z-score, replicate mean: 2.52 (active)
Elf3 (E74-like factor 3) #5, siRNA vendor or control pool qiagen single siRNA → p65 translocation z-score, replicate mean: 0.758
Elf3 (E74-like factor 3) #6, siRNA vendor or control pool qiagen single siRNA → p65 translocation z-score, replicate mean: -1.61
Calm4 (calmodulin 4) #1, siRNA vendor or control pool ambion single siRNA → p65 translocation z-score, replicate mean: -0.411
Calm4 (calmodulin 4) #2, siRNA vendor or control pool ambion single siRNA → p65 translocation z-score, replicate mean: -0.0823
Calm4 (calmodulin 4) #3, siRNA vendor or control pool ambion single siRNA → p65 translocation z-score, replicate mean: -1.43
Calm4 (calmodulin 4) #4, siRNA vendor or control pool qiagen single siRNA → p65 translocation z-score, replicate mean: 3.34 (active)
Calm4 (calmodulin 4) #5, siRNA vendor or control pool qiagen single siRNA → p65 translocation z-score, replicate mean: 0.25
Calm4 (calmodulin 4) #6, siRNA vendor or control pool qiagen single siRNA → p65 translocation z-score, replicate mean: -1.38
Brd8 (bromodomain containing 8) #1, siRNA vendor or control pool ambion single siRNA → p65 translocation z-score, replicate mean: 0.853
Brd8 (bromodomain containing 8) #2, siRNA vendor or control pool ambion single siRNA → p65 translocation z-score, replicate mean: 0.394
Brd8 (bromodomain containing 8) #3, siRNA vendor or control pool ambion single siRNA → p65 translocation z-score, replicate mean: -5.77 (active)
Brd8 (bromodomain containing 8) #4, siRNA vendor or control pool qiagen single siRNA → p65 translocation z-score, replicate mean: 1.48
Brd8 (bromodomain containing 8) #5, siRNA vendor or control pool qiagen single siRNA → p65 translocation z-score, replicate mean: -2.49 (active)
Brd8 (bromodomain containing 8) #6, siRNA vendor or control pool qiagen single siRNA → p65 translocation z-score, replicate mean: -1.14
Or9m1 (olfactory receptor family 9 subfamily M member 1) #1, siRNA vendor or control pool ambion single siRNA → p65 translocation z-score, replicate mean: -6.18 (active)
Or9m1 (olfactory receptor family 9 subfamily M member 1) #2, siRNA vendor or control pool ambion single siRNA → p65 translocation z-score, replicate mean: -7.93 (active)
Or9m1 (olfactory receptor family 9 subfamily M member 1) #3, siRNA vendor or control pool ambion single siRNA → p65 translocation z-score, replicate mean: 1.49
Or9m1 (olfactory receptor family 9 subfamily M member 1) #4, siRNA vendor or control pool qiagen single siRNA → p65 translocation z-score, replicate mean: 0.292
Or9m1 (olfactory receptor family 9 subfamily M member 1) #5, siRNA vendor or control pool qiagen single siRNA → p65 translocation z-score, replicate mean: 1.92
Or9m1 (olfactory receptor family 9 subfamily M member 1) #6, siRNA vendor or control pool qiagen single siRNA → p65 translocation z-score, replicate mean: 2.66 (active)

Targets listed so far whose target name begins with C or c (6):
Calm4 (calmodulin 4) #1, siRNA vendor or control pool ambion single siRNA → p65 translocation z-score, replicate mean: -0.411
Calm4 (calmodulin 4) #2, siRNA vendor or control pool ambion single siRNA → p65 translocation z-score, replicate mean: -0.0823
Calm4 (calmodulin 4) #3, siRNA vendor or control pool ambion single siRNA → p65 translocation z-score, replicate mean: -1.43
Calm4 (calmodulin 4) #4, siRNA vendor or control pool qiagen single siRNA → p65 translocation z-score, replicate mean: 3.34 (active)
Calm4 (calmodulin 4) #5, siRNA vendor or control pool qiagen single siRNA → p65 translocation z-score, replicate mean: 0.25
Calm4 (calmodulin 4) #6, siRNA vendor or control pool qiagen single siRNA → p65 translocation z-score, replicate mean: -1.38
